Results published in PubChem BioAssay AID2685 (National Center for Advancing Translational Sciences (NCATS), 2010).
The other results are listed elsewhere or left out. Shown are side measurements of this screen, not its main read-out; they come without a call. The list favours compounds with an active or inconclusive main result. Words in brackets tell the shape of the fitted curve; partial curves, single points and poor fits give uncertain potencies.

Experiment: qHTS Assay for Lipid Storage Modulators in Drosophila S3 Cells;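 on cell number change: cells counted by Cell Tracker Red CMTPX staining in the red channel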
Details: BODIPY lipid droplet fluorescence, 18-24 h; for cell number change: measured here: cell count max response, cells fed with added oleic acid
Method in brief: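 Drosophila S3 cells loaded with oleic acid (400 uM, as added) and compounds at several concentrations; lipid droplets imaged by 488-nm laser-scanning cytometry, 500–530 nm intensity and object ratio to cell channel. Percent activity normalized to 20 uM Triacsin C.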

[1] = measured here: cell number channel AC50, cells fed with added oleic acid
[2] = measured here: lipid fluorescence (Fed channel) AC50, cells fed with added oleic acid

| Compound | cell number change [%] | AC50 [1] | AC50 [2] |
| --- | --- | --- | --- |
| O=C(Nc1nc(-c2nc3ccccc3s2)cs1)C1CC1 | 55.5 | 25900 nM [rising, single point] | 3660 nM [rising, full curve] |
| COc1cc2c(cc1OC)C(c1ccc(Br)cc1)N(C(=O)c1ccccc1C(=O)O)CC2 (stereo not given) | 2.38 | – | – |
| COc1cccc(NC(=O)C2CCCN2C(=O)Nc2ccccc2F)c1 (stereo not given) | -1.89 | – | – |
| O=C(CNC1CCCCC1)Nc1ccc(S(=O)(=O)N2CCCCC2)cc1 | -2.14 | – | – |
| O=[N+]([O-])c1ccc(Cl)cc1CN1CCCCCC1 | 16.8 | 206 nM [rising, full curve, poor fit] | 29100 nM [rising, single point] |
| CCN(c1ccc(NC(=O)COC(=O)/C=C/c2cccs2)cc1)C(C)C | -10.4 | – | 16400 nM [falling, single point] |
| COC(=O)c1ccc(C(=O)OC)c(NC(=O)CN(c2ccccc2)S(=O)(=O)N(C)C)c1 | 2.77 | – | 116 nM [rising, full curve] |
| O=C(c1ccc(CS(=O)(=O)c2ccccc2)o1)N1CCN(c2ncccn2)CC1 | 3.25 | – | 130 nM [falling, full curve, poor fit] |
| COc1ccc(C(=O)Nc2ccccc2C(=O)NCc2cccnc2)cc1 | -32.2 | – | 29100 nM [rising, single point] |
| CC1=NOC2(C1)N(C)c1ccccc1C2(C)C (stereo not given) | -0.768 | – | 1030 nM [falling, full curve, poor fit] |
| CCOc1ccccc1CNC(=O)C1CCCN(c2nnc(C)c3c(C)n(-c4ccccc4)nc23)C1 (stereo not given) | 20.6 | – | 130 nM [rising, full curve, poor fit] |
| COCCCN(C(=O)CSCC(=O)Nc1cccc(C)c1)c1c(N)n(Cc2ccccc2)c(=O)[nH]c1=O | 4.07 | – | – |
| CCNC(=O)c1sc2cc(C)ccc2c1Cl | 6.85 | – | 2590 nM [falling, single point] |
| COc1ccc(OC)c(S(=O)(=O)n2cnc3ccccc32)c1 | 3.16 | – | 731 nM [rising, full curve] |
| Cc1ccc(-c2nc3ccccc3c(=O)n2Cc2ccccc2)cc1 | -6.41 | – | 14600 nM [falling, single point] |
| Cc1ccc(C(=O)Nc2cc([N+](=O)[O-])ccc2F)s1 | 6.78 | – | 103 nM [rising, full curve, poor fit] |
| Cn1cccc1CC(=O)N/N=C\c1c2ccccc2cc2ccccc12 | -36.9 | 29100 nM [falling, single point] | 146 nM [falling, full curve, poor fit] |
| C(=N\c1nc2ccccc2n1CCN1CCCCC1)/c1cccs1 | -35.9 | 20600 nM [falling, single point] | – |
| Cc1ccc2[nH]cc(S(=O)(=O)c3ccc(F)cc3)c(=O)c2c1 | 0.901 | – | 29100 nM [rising, single point] |
| CN(C)c1ccc(S(=O)(=O)NCC(=O)NCCOc2ccccc2F)cc1[N+](=O)[O-] | 111 | 18400 nM [rising, single point] | – |

| Compound | cell number change [%] | AC50 [1] | AC50 [2] |
| --- | --- | --- | --- |
| O=C(CCCOc1ccc(Cl)cc1Cl)NN1CCOCC1 | 5.55 | – | 7310 nM [falling, single point] |
| O=C(C1=C(O)C(=O)N(CCN2CCOCC2)C1c1cccc([N+](=O)[O-])c1)c1cccs1 (stereo not given) | 2.72 | – | 25900 nM [falling, single point] |
| CCOCCCn1c(SCC(=O)NC(C)C)nc2ccccc2c1=O | -3.79 | 920 nM [rising, full curve] | – |
| O=[N+]([O-])c1cccc(S(=O)(=O)NCCc2cccs2)c1 | -4.76 | – | – |
| CCCc1cc(C(=O)NCc2ccccc2)no1 | 34.8 | 1840 nM [rising, full curve, poor fit] | – |
| CN1CCN(C(=O)c2ccc3c(c2)N(Cc2cccc(Cl)c2)C(=O)c2ccccc2S3(=O)=O)CC1 | 37.1 | 29100 nM [rising, single point] | – |
| COc1ccccc1CNC(=O)CN1C(=O)c2ccccc2S1(=O)=O | 17.8 | – | – |
| CCC(c1nc2ccccc2c(=O)n1CCCn1ccnc1)N1C(=O)c2ccccc2C1=O (stereo not given) | – | 259 nM [rising, full curve, poor fit] | – |
| CSCC[C@H](NC(=O)N1CCn2c1nc1ccccc12)C(=O)NCc1ccccc1 | -2.02 | – | 29100 nM [falling, single point] |
| C/C(=N\Nc1ccc(S(=O)(=O)N2CCCCC2)cn1)c1ccc(O)cc1 | -1.87 | – | 231 nM [rising, full curve, poor fit] |
| O=C(COC(=O)[C@@H]1CCCN1S(=O)(=O)c1ccccc1F)Nc1ccc(OC(F)F)cc1 | 66 | 29100 nM [rising, single point] | 6510 nM [falling, single point] |
| CCOc1ccc(C2C(C#N)=C(N)Oc3cc(C)n(CCN4CCOCC4)c(=O)c32)cc1OCC (stereo not given) | 3.69 | – | 164 nM [rising, full curve, poor fit] |
| COc1ccc(/C=N/NC(=O)c2ccc(Cl)cc2)cc1COC(C)=O | 8.42 | – | 820 nM [rising, full curve, poor fit] |
| S=C(NCc1ccccn1)Nc1ccc(Br)cc1Cl | 6.88 | – | – |
| CCCCn1c(SCC(=O)NCc2ccco2)nc2ccc(N3CCOCC3)cc2c1=O | – | – | 580 nM [rising, single point] |
| Cc1cc(C)c(C#N)c(SCc2ccccc2C)n1 | 20.3 | 1840 nM [rising, partial curve, poor fit] | 5170 nM [rising, full curve] |
| CCCn1c(COc2ccccc2OC)nc2ccccc21 | -30.3 | 5800 nM [falling, partial curve] | – |
| O=C(OCC(=O)c1ccccc1Br)c1ccccn1 | -18.9 | 65.1 nM [falling, full curve, poor fit] | 146 nM [falling, full curve, poor fit] |
| O=C(CC(CC(=O)c1ccc(Br)cc1)c1cccnc1)c1ccc(Br)cc1 | -6.91 | – | 731 nM [rising, partial curve, poor fit] |

Fetched by structure from the entries so far, two records:

| Compound | cell number change [%] | AC50 [1] | AC50 [2] |
| --- | --- | --- | --- |
| CCOCCCn1c(SCC(=O)NC(C)C)nc2ccccc2c1=O | -3.79 | 920 nM [rising, full curve] | – |
| Cc1cc(C)c(C#N)c(SCc2ccccc2C)n1 | 20.3 | 1840 nM [rising, partial curve, poor fit] | 5170 nM [rising, full curve] |
